The experiment can be described thus: qHTS Assay for Lipid Storage Modulators in Drosophila S3 Cells.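 For cell number change: cells counted by Cell Tracker Red CMTPX staining in the red channel.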 The conditions noted are these: BODIPY lipid droplet fluorescence, 18-24 h; for cell number change: measured here: cell count max response, cells fed with added oleic acid. In a few lines:
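Laser-scanning cytometry quantifies lipid droplet accumulation (500–530 nm total intensity; droplet/cell object ratio) in oleic acid-fed (400 uM added) Drosophila S3 cells treated with a concentration series. 20 uM Triacsin C defined 100% inhibition.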

The mark [1] stands for this setting: measured here: lipid fluorescence (Fed channel) AC50, cells fed with added oleic acid.
[2] abbreviates: measured here: cell number channel AC50, cells fed with added oleic acid.

The values below come from PubChem BioAssay AID2685 (National Center for Advancing Translational Sciences (NCATS), 2010).

This is one part of the list. These are further read-outs of the screen, such as a control signal, another cell line or another target. No call is given for them. Compounds called inactive in the main read-out are mostly missing here. The note in brackets gives the kind of curve behind each potency; many fits are weak.

As usually defined, the AC50 is the midpoint of the concentration-response curve, whichever way the signal moves. Turning to `Cc1occc1-c1nnc(SCC(=O)Nc2nccs2)n1CCc1ccccc1`, the cell number change came to 0.397%. For the same molecule, the AC50 under setting [1] is 1.64 µM [rising, partial curve].
In the case of `CC(C)(C)c1ccc(S(=O)(=O)NCc2ccc(C(=O)N3CCOCC3)cc2)cc1`, the cell number change was found to be 7.82%. Besides, under setting [1], the AC50 was 13 µM [falling, partial curve].
`COc1ccc(/C=C(/NC(=O)c2ccccc2)C(=O)N2CCC(C)CC2)cc1`: the cell number change was 29.5%.
As to `O=C(NC12CC3CC(CC(C3)C1)C2)c1ccc(-c2ccc(Cl)cc2)o1`, the half-maximal activity concentration (AC50) runs as follows: under setting [2], 6.51 µM [rising, partial curve, poor fit]; under setting [1], 6.51 µM [rising, partial curve, poor fit].
With `Nc1ncnc2nc(N3CCN(C(=O)c4ccccc4)CC3)[nH]c12`, the cell number change was 2.21%. In addition, the AC50 under setting [1] was 0.184 µM [rising, full curve, poor fit].
In the case of `CN1CC(=O)NC1=NC(=O)c1ccc(Cl)c(S(=O)(=O)N2CCCCCC2)c1`, the cell number change was -11.5%. Further, the half-maximal activity concentration (AC50) under setting [1] was 25.9 µM [falling, partial curve, poor fit].
As to `Cc1ccc(C(=O)CC(C(=O)O)n2cnc([N+](=O)[O-])n2)cc1` (stereo not given), the cell number change was determined as 11.6%. Also, under setting [1], the AC50 was 2.31 µM [rising, full curve, poor fit].
Regarding `COc1ccc(OC(C)C(=O)N(C)Cc2nc(-c3ccccc3)no2)cc1` (stereo not given), the cell number change is -31.6%. Also, the AC50 under setting [2] was 13 µM [falling, single point]. In addition, the concentration at half-maximal activity (AC50) under setting [1] is 6.31 µM [falling, partial curve, poor fit].
As for `CN(c1ccccc1C(=O)N1CCCC1)S(C)(=O)=O`, the cell number change is -116%. For the same molecule, under setting [2], the AC50 was 25.9 µM [falling, partial curve]. Besides, the concentration at half-maximal activity (AC50) under setting [1] is 23.1 µM [falling, partial curve].
As for `CCCOc1ccc(NC(=O)CC2C(=O)N(Cc3ccccc3)C(=S)N2Cc2cccs2)cc1` (stereo not given), the half-maximal activity concentration (AC50) reads like this: under setting [2], 3.26 µM [rising, partial curve, poor fit]; under setting [1], 1.84 µM [rising, partial curve, poor fit].
Turning to `N#C/C(=C\c1ccc(-c2ccccc2Cl)o1)C(=O)Nc1nc2ccccc2s1`, the cell number change is 19.2%. In addition, the AC50 under setting [1] is 0.58 µM [rising, partial curve].
Take `CCc1ccc(CN2CCSCC2)cc1`: the concentration at half-maximal activity (AC50) under setting [1] was 25.9 µM [rising, single point].
`CC(C)Cn1c(-c2cc(Br)ccc2F)nc2c1c(=O)[nH]c(=O)n2CC(C)C`: the cell number change came to 5.42%. Moreover, under setting [1], the AC50 was 8.2 µM [falling, single point].
Regarding `NC(=O)C1(N2CCCCC2)CCN(CC(=O)Nc2cc(Cl)ccc2Cl)CC1`, under setting [1], the AC50 is 5.8 µM [rising, single point].
For `COc1ccc(-c2cc(C(F)F)n3ncc(C(=O)Nc4c(C)n(C)n(-c5ccccc5)c4=O)c3n2)cc1`, the cell number change worked out at 0.239%. Besides, the AC50 under setting [1] is 6.51 µM [falling, single point].
`O=CN1CCN(C2CC(=O)N(c3ccc(Br)cc3)C2=O)CC1` (stereo not given): the cell number change is -10.5%. For the same molecule, the AC50 under setting [2] was 0.0164 µM [falling, full curve, poor fit].
On to `CCCn1c(N2CCN(C(=O)/C=C/C(=O)O)CC2)nc2ccccc21`, for which the cell number change was found to be 42.6%.
In the case of `O=C(Cn1nnc(-c2cccs2)n1)OC1CCCCC1`, the cell number change is -10.4%. For the same molecule, the half-maximal activity concentration (AC50) under setting [1] was 2.06 µM [falling, partial curve].
With `CC(C)N(CC#CCC(O)(c1ccccc1)C1CCCC1)CCO` (stereo not given), the cell number change came to 9.31%. In addition, the AC50 under setting [1] was 0.146 µM [falling, full curve, poor fit].
For the molecule `CN(Cc1ccccc1)/C(=N/O)c1cccc(Cl)c1`, the cell number change is -16.3%. In addition, under setting [1], the AC50 is 3.26 µM [falling, full curve, poor fit].
Regarding `O=C(NCC(=O)N1CCN(S(=O)(=O)c2c(F)cccc2F)CC1)c1ccccc1F`, the cell number change was determined as 83.7%. Further, the AC50 under setting [2] was 29.1 µM [rising, single point]. Besides, the AC50 under setting [1] is 0.731 µM [falling, single point].
On to `O=C(OC(C(=O)NCc1ccc2c(c1)OCO2)c1ccc(Cl)cc1)c1ccco1` (stereo not given), for which the cell number change is -1.88%.
`NNc1ccc2nncn2n1`: the cell number change is -6.72%.
With `NC(=O)COC(=O)CCCc1nc2ccccc2s1`, the cell number change is -15.9%. Besides, the concentration at half-maximal activity (AC50) under setting [1] was 16.4 µM [falling, partial curve].
Take `O=C(COC(=O)c1cc(Br)c(Br)s1)NCCC1=CCCCC1`: the cell number change was -26.5%. Besides, the AC50 under setting [1] was 20.6 µM [falling, single point].
Regarding `O=C(CNC(=S)N(CCCN1CCOCC1)Cc1cccs1)NC1CCCC1`, under setting [2], the concentration at half-maximal activity (AC50) is 0.731 µM [rising, single point].
As to `COc1ccc(Cl)cc1N1C(=N)SCC1=O`, the cell number change worked out at 21.5%. Further, under setting [1], the AC50 is 0.291 µM [rising, full curve, poor fit].
Turning to `COC(=O)CSc1nc(N)c2c3c(sc2n1)C(c1ccccc1)SC(c1ccccc1)C3` (stereo not given), the cell number change stood at 200%. Besides, the AC50 under setting [2] was 20.6 µM [rising, single point].
Regarding `CCn1ccnc1CC1COc2ccccc2O1` (stereo not given), the cell number change came out at 11.9%. The AC50 under setting [1] is 0.259 µM [rising, full curve, poor fit].
For the molecule `COc1ccc(C(C(=O)NC(C)(C)C)N(C(=O)Cn2nnc3ccccc32)c2cccc(C(C)=O)c2)cc1O` (stereo not given), the cell number change is -1.26%. Under setting [1], the concentration at half-maximal activity (AC50) was 0.0517 µM [falling, full curve, poor fit].
For `Cc1ccc2cccc(OCC(=O)N3CC(C)CC(C)C3)c2n1` (stereo not given), the cell number change was found to be 63.7%. Further, the concentration at half-maximal activity (AC50) under setting [2] is 25.9 µM [rising, single point].
Regarding `O=C(CN1C(=O)S/C(=C\c2ccccc2)C1=O)NNC(=O)c1ccccc1O`, the cell number change is -11.6%. For the same molecule, the concentration at half-maximal activity (AC50) under setting [1] was 0.146 µM [falling, full curve, poor fit].
Take `CCCCN(C)C(=O)Cn1cnc2sc(C)c(S(=O)(=O)N3CCN(c4ccccc4OC)CC3)c2c1=O`: the cell number change was -3.42%.
Regarding `Cc1cccc2cc3c(N)c(C(=O)N4CCCc5ccccc54)sc3nc12`, the cell number change turned out to be 12.1%. Also, the concentration at half-maximal activity (AC50) under setting [1] was 25.9 µM [falling, single point].
Turning to `Cc1cc(N)n2nc(-c3ccc(C(C)(C)C)cc3)cc2n1`, under setting [2], the concentration at half-maximal activity (AC50) is 6.51 µM [rising, single point].
Consider `O=c1nc(N2CCOCC2)nc2n1CCO2`, for which the cell number change was -2.94%. Further, the half-maximal activity concentration (AC50) under setting [2] was 0.184 µM [falling, full curve, poor fit].
In the case of `CCn1nnc(NC(=O)c2c(OC)cccc2OC)n1`, the cell number change is 11.4%. In addition, the concentration at half-maximal activity (AC50) under setting [1] was 0.116 µM [falling, full curve, poor fit].
For `C[C@@H](NC(=O)c1nc[nH]c1C(=O)OCc1ccccc1)c1ccccc1`, the cell number change is -46.6%. The AC50 under setting [2] is 0.731 µM [falling, partial curve, poor fit].
With `Cc1cc(C)n(-c2nc(SCC(=O)Nc3nccs3)c3c4c(sc3n2)COC(C)(C)C4)n1`, the cell number change is -20%. For the same molecule, the AC50 under setting [1] is 0.13 µM [falling, full curve, poor fit].
In the case of `CC(=O)c1cc2c(cc1NC(=O)Cn1nc(-c3ccc(F)cc3)ccc1=O)OCO2`, the cell number change was 17.8%. The AC50 under setting [1] was 0.58 µM [falling, single point].
On to `CCOC(=O)c1n[nH]n(-c2cc(Cl)cc(Cl)c2)c1=O`, for which the cell number change is -5.13%. Besides, under setting [2], the AC50 was 2.06 µM [falling, partial curve, poor fit]. Also, the half-maximal activity concentration (AC50) under setting [1] is 1.3 µM [falling, full curve].
Regarding `Cc1ccc(N2C(=O)C3NN=C(C(=O)OCc4ccccc4)C3C2=O)cc1` (stereo not given), the cell number change was -14.7%. Under setting [2], the AC50 was 1.16 µM [falling, full curve, poor fit].
On to `N#C/C(=C\c1ccc(C(=O)O)cc1)c1ccccn1`, for which the cell number change was 19.4%. Under setting [1], the concentration at half-maximal activity (AC50) is 29.1 µM [rising, single point].
In the case of `COc1ccccc1N1CCN(C(=O)c2cc3ccccc3[nH]2)CC1`, the cell number change turned out to be 1.1%.
As to `COc1ccc(/C=C/C(=O)c2ccc(O)cc2)cc1CN1CCOCC1`, the cell number change was -0.141%. Also, the AC50 under setting [1] is 18.4 µM [falling, single point].
For the molecule `Cc1cc(C(=O)O)c(CSCc2cc(C(=O)O)oc2C)o1`, the AC50 under setting [1] was 29.1 µM [rising, single point].
For `Cc1csc(CN(C)C(=O)CC2C(=O)NCCN2Cc2ccc(Cl)c(F)c2)n1` (stereo not given), the AC50 under setting [1] was 6.51 µM [falling, single point].
Turning to `COc1ccc(C(C)=O)cc1CSc1nnc(C)n1-c1ccccc1`, the cell number change is 13.5%.
Turning to `C/C(=N\NC(=O)C1CC1)c1ccccc1O`, under setting [1], the half-maximal activity concentration (AC50) is 0.103 µM [falling, single point].
Consider `COc1ccccc1-n1ccnc(SCC(=O)NCCc2ccccc2)c1=O`, for which the cell number change was found to be 1.71%. Besides, the AC50 under setting [1] was 3.26 µM [rising, single point].
On to `O=c1c2ccccc2nnn1Cc1ccccc1Cl`, for which the cell number change was -11.8%. Moreover, the AC50 under setting [2] was 6.51 µM [falling, single point]. Moreover, the AC50 under setting [1] was 6.51 µM [falling, single point].
Consider `CC(C)(C)n1c(=O)[nH]c2c(c1=O)CCC2`, for which the cell number change worked out at 8.7%.
With `COCCn1c(=NC(=O)c2nc3ccccc3s2)sc2cc(S(C)(=O)=O)ccc21`, the cell number change is 26.5%. Also, the concentration at half-maximal activity (AC50) under setting [1] is 0.116 µM [rising, full curve, poor fit].
For `O=C(COC(=O)CC(c1ccccc1)c1ccccc1)Nc1cccc(F)c1`, the cell number change worked out at 46.4%. Besides, the concentration at half-maximal activity (AC50) under setting [2] was 13 µM [rising, partial curve]. In addition, the AC50 under setting [1] is 3.66 µM [falling, single point].
Take `C/C(=N\NC(=O)C1CCCN(S(=O)(=O)c2ccccc2)C1)c1ccncc1` (stereo not given): the AC50 by setting is: under setting [2], 2.31 µM [rising, partial curve]; under setting [1], 1.84 µM [rising, partial curve].
Take `O=c1c2cc(NC(=S)N3CCC(N4CCCCC4)CC3)ccc2nc2n1CCCCC2`: the cell number change stood at 16.4%. The AC50 under setting [1] was 29.1 µM [falling, single point].
On to `Cc1cc(=O)n2nc(N3CCC(C(=O)NCc4ccc(Cl)cc4)CC3)sc2n1`, for which the cell number change turned out to be 12.5%. The concentration at half-maximal activity (AC50) under setting [1] was 29.1 µM [rising, single point].
For the molecule `NC(=O)c1sc(=S)n(-c2ccc(Br)cc2)c1N`, under setting [1], the AC50 was 5.8 µM [rising, single point].
As for `COc1ccc(NC(=O)C2c3cc(OC)c(OC)cc3C(=O)N(C)C2c2cccnc2)cc1OC` (stereo not given), the cell number change worked out at 37.3%. Besides, the concentration at half-maximal activity (AC50) under setting [2] was 16.4 µM [rising, single point].
With `NS(=O)(=O)c1ccc(CCNC(=O)COC(=O)CCc2ccccc2)cc1`, the cell number change was -18.1%. The half-maximal activity concentration (AC50) under setting [2] is 0.00731 µM [falling, full curve, poor fit].
